Results taken from PMC7819943, “Rice protein-binding microarrays: a tool to detect cis-acting elements near promoter regions in rice”.
The list shows a part of the results.

Sequences of proteins named here, by UniProt entry; tags and fusion partners are left off.
UniProt Q0JBA9, entry or part of it: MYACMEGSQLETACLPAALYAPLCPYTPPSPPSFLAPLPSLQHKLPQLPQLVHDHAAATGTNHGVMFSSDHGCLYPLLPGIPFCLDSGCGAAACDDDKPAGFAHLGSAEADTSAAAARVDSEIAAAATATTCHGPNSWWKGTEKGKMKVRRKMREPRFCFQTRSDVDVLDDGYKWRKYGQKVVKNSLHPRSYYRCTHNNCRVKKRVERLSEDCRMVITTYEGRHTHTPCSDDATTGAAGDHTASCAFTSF

What follows are sequences tested against OsWRKY34 (Oryza sativa, UniProt Q0JBA9 1-250) (assay: protein-binding microarray (RPBM); PBS, 2% BSA, 51.3 ng/ul salmon testes DNA, 50 uM zinc acetate, 200 nM TF, 25 C, 1 h; high values mean tight binding). Settings: protein: recombinant; tags: N-terminal polyhistidine and DsRed monomer fusion (pET32a); label: CyDye5-dUTP incorporated in the synthesized complementary strand; 3' TTTTT single-stranded linker to array surface; dsDNA, one strand shown.
Summary of the method: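 Binding signal is defined as the fluorescence intensity of each feature in arbitrary units, read on an Axon 4000B scanner. Transcription factors with N-terminal polyhistidine and DsRed fusions came from E. coli BL21-CodonPlus and were purified on Ni–NTA. They were incubated at 200 nM for 1 h at 25 °C on a custom Agilent array that had been made double-stranded with Cy5-dUTP, with 50 µM zinc acetate present, and the array was washed.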
In the case of “TCGCACACGTCGCCGCCGCCGTAATCGCATCTGCCCATGGCGGAGTCACCTAGTGCAG”, the binding signal is reported as 8720 fluorescence intensity (a.u.).
In the case of “GGATAATTTTGCTTTCCTTGAGGTTCATTCCAATTATTTTCGGAGTCACCTAGTGCAG”, the binding signal is reported as 9470 fluorescence intensity (a.u.).
With “CTCACTGATGACTACTACTATTCATTTAATCATTTATACCCGGAGTCACCTAGTGCAG” the binding signal was 9360 fluorescence intensity (a.u.).
“TAGCTGTTTGGTCTTGCTGGTGGTGGTGGGTGAGTGTTGGCGGAGTCACCTAGTGCAG” was tested, and the binding signal was 11200 fluorescence intensity (a.u.).
“CTCTCTTTCTCTTCCATTTCTTGAAACTTGTATGGAGGTTCGGAGTCACCTAGTGCAG” was tested, and the binding signal was 9410 fluorescence intensity (a.u.).
“GATCGTCTCCAACGCACACTGATCTCCCCTGCGGCCTCTCCGGAGTCACCTAGTGCAG” was tested, and the binding signal was 9560 fluorescence intensity (a.u.).
In the case of “GGTTGGTGACTCACCATCTTGGCGCCCGTCCCGTCTCGTCCGGAGTCACCTAGTGCAG”, the binding signal is reported as 10200 fluorescence intensity (a.u.).
“TGGGACTACTTATACATGTATTGATAAATTTTCTTTCACACGGAGTCACCTAGTGCAG” was tested, and the binding signal was 10400 fluorescence intensity (a.u.).
With “CATCCAGCCTCGACGTGCCGGCGGCGGTGGGTGGCGGGGCCGGAGTCACCTAGTGCAG” the binding signal was 8680 fluorescence intensity (a.u.).
“ATTTGTCGATGTTACAGGGCGAAAATTTTGGGGTGGGATCCGGAGTCACCTAGTGCAG” was tested, and the binding signal was 14800 fluorescence intensity (a.u.).
“TCAGGGGCTAGCTCCTTTGCGCTGCGGCTTTGACCGCGGTCGGAGTCACCTAGTGCAG” was tested, and the binding signal was 9050 fluorescence intensity (a.u.).
With “CTTCTGAATCTGCTGATCGCTTAATGCGCCGTGTAAAGACCGGAGTCACCTAGTGCAG” the binding signal was 8570 fluorescence intensity (a.u.).
In the case of “GTCTTCCCAAAATCTTATTTCTATTCCATTACCAGGTTTACGGAGTCACCTAGTGCAG”, the binding signal is reported as 9280 fluorescence intensity (a.u.).
In the case of “TTACACTGTTCATGTCTCACGTTTGACCGTTCGTTTTATTCGGAGTCACCTAGTGCAG”, the binding signal is reported as 16400 fluorescence intensity (a.u.).
“CCCGGGAACACGCTCCAGAGATGCTGACTATCTTTCCCTTCGGAGTCACCTAGTGCAG” was tested, and the binding signal was 8070 fluorescence intensity (a.u.).
With “ATTCCTCCAGCCTCTCTGTTCGTGCGTGCCGTCGCCGTCGCGGAGTCACCTAGTGCAG” the binding signal was 9310 fluorescence intensity (a.u.).
In the case of “CGTCATGGTTCAGCAATTTCAGGCGTCTTCTTTCAGTGTCCGGAGTCACCTAGTGCAG”, the binding signal is reported as 8690 fluorescence intensity (a.u.).
With “GTCATACCACCTTACTTTTTACGTTTGAATCACCATTCTACGGAGTCACCTAGTGCAG” the binding signal was 10900 fluorescence intensity (a.u.).
In the case of “TCTATTGTCTTCGATGTGGAGTTGTGTTCGAACTTTGAACCGGAGTCACCTAGTGCAG”, the binding signal is reported as 8240 fluorescence intensity (a.u.).
“TGTGTTGGATCGGTTGGACGCGCTCACTCGGTTTGGTTTGCGGAGTCACCTAGTGCAG” was tested, and the binding signal was 9730 fluorescence intensity (a.u.).
In the case of “CTCTCTCATCTCGCATTGGTTATTTATTCGCCTCCTCCGCCGGAGTCACCTAGTGCAG”, the binding signal is reported as 11700 fluorescence intensity (a.u.).
For “AGTACAGCAGTATCCCGTTTCGTTTGGGCTTTTGGTGGGGCGGAGTCACCTAGTGCAG”, the binding signal was 15800 fluorescence intensity (a.u.).
In the case of “TCCATCACTAGCTATTTTGGTACTTTCATCTACTTATTACCGGAGTCACCTAGTGCAG”, the binding signal is reported as 8340 fluorescence intensity (a.u.).
For “AATCCAGCTGCCGCGCGCGTCAATCACTCTCGTCCACACCCGGAGTCACCTAGTGCAG”, the binding signal was 8940 fluorescence intensity (a.u.).
For “AACGGCTATCGGCGGGGTGGGGCAGCGACCATCGAGCTTCCGGAGTCACCTAGTGCAG”, the binding signal was 11900 fluorescence intensity (a.u.).
In the case of “GCATTACCTCGCGATCTCCTTCCCAATTTTGGTCTCTTCCCGGAGTCACCTAGTGCAG”, the binding signal is reported as 14200 fluorescence intensity (a.u.).
With “CACTACTACTGCCACAAACGCCACACACGATATAGCTATACGGAGTCACCTAGTGCAG” the binding signal was 8390 fluorescence intensity (a.u.).
For “ACATCAGATACATTTCGCATCTTTATTTTTCTCACCATTTCGGAGTCACCTAGTGCAG”, the binding signal was 8680 fluorescence intensity (a.u.).
In the case of “CCTGCCCGTCTCTCGCAGTCTCGCATTTCTCTCTTTTTCTCGGAGTCACCTAGTGCAG”, the binding signal is reported as 12100 fluorescence intensity (a.u.).
“TCCCCGGGCCTCTCTCTGATCCCGTATTCACCGGTGACCACGGAGTCACCTAGTGCAG” was tested, and the binding signal was 12200 fluorescence intensity (a.u.).
With “ACCTTCCGGATTCCGGCCATCTTCGTTTCTCGTCTTCGCCCGGAGTCACCTAGTGCAG” the binding signal was 9180 fluorescence intensity (a.u.).
In the case of “GCCTCATCGTCCTCCGATTCCATTCCGCCATGGTCGACGACGGAGTCACCTAGTGCAG”, the binding signal is reported as 8220 fluorescence intensity (a.u.).
In the case of “ACACACACACACAAACACTGCAAGGTTTGTTTTCTTATCACGGAGTCACCTAGTGCAG”, the binding signal is reported as 8680 fluorescence intensity (a.u.).
With “GATGTGGGCTAGCTTATGGTTTATTTTCCTGCTAAAATTGCGGAGTCACCTAGTGCAG” the binding signal was 8830 fluorescence intensity (a.u.).
In the case of “CCAACCCGCCGCTGGCTCGCTTTATATCCCGCGTGAGCTCCGGAGTCACCTAGTGCAG”, the binding signal is reported as 11700 fluorescence intensity (a.u.).
“TCTCTTCCGAGTTCCGACTTTCGAAATTTCCAAAACCCTCCGGAGTCACCTAGTGCAG” was tested, and the binding signal was 8230 fluorescence intensity (a.u.).
“GCAAGGTTTCCGTTTCTGCCCACGCCAAAGCGGCCAACAACGGAGTCACCTAGTGCAG” was tested, and the binding signal was 9220 fluorescence intensity (a.u.).
For “CAATATTAATAATCGGTCCCACTTATCATACACACGTTTTCGGAGTCACCTAGTGCAG”, the binding signal was 9260 fluorescence intensity (a.u.).
“AATCTTCTTTGTATTTTATTGCTCTTAATTTAATTATGCTCGGAGTCACCTAGTGCAG” was tested, and the binding signal was 9530 fluorescence intensity (a.u.).
For “CGGAGTTTTCTTTGTTTTTTCTTCGTTTTCGAAATTTCAGCGGAGTCACCTAGTGCAG”, the binding signal was 9080 fluorescence intensity (a.u.).
With “GTGGAGGGGCGGCGTTGGGCAGAGGGGCGGCACGGGTGAACGGAGTCACCTAGTGCAG” the binding signal was 12800 fluorescence intensity (a.u.).
“AAATACTTTGTACTAATGTAAGTTTATGTTCCTTTTATTCCGGAGTCACCTAGTGCAG” was tested, and the binding signal was 8320 fluorescence intensity (a.u.).
